Experimental data: patent US20020019040A1 (LEADD B V, published 2002)
No constants are given. Whether binding was seen depends on the method and setting. Binding seen in cells or lysates may run through a third protein. Some entries that bind do so weakly or less than the wild type. For some of these results: Where a sequence is shown, tags or fusion partners need not be part of it.

Protein sequences, listed by entry. Tags and fused reporters are not part of them. Lines headed by an entry give the natural chain unless they say otherwise; changes in a name come on top.
UniProt Q9NQ31: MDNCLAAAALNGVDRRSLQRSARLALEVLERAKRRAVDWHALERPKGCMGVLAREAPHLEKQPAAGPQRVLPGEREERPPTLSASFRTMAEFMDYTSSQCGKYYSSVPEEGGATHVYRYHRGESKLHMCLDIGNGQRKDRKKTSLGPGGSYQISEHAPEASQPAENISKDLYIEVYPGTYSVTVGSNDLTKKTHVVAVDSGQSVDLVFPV

What was measured:
[1] = biological target: T1, Apoptin (chicken anemia virus) (UniProt Q99152); test: co-immunoprecipitation from co-transfected Cos cells
T1 sequence (looked up): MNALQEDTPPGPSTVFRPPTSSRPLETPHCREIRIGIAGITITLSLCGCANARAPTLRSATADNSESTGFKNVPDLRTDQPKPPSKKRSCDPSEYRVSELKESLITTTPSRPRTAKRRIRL

[2] = biological target: T1, Apoptin (chicken anemia virus); test: co-immunoprecipitation with 9E10 from co-transfected Cos cells, Western blot
[3] = biological target: T1, Apoptin (chicken anemia virus); test: co-immunoprecipitation with polyclonal anti-Apoptin antibody from co-transfected Cos cells, Western blot
[4] = biological target: T2, AAP-3 (full-length sequence, myc-tagged) (human) (UniProt Q9Y3D0); test: co-immunoprecipitation after co-transfection, IP with AAP antibody, Western blot with 9E10
T2 sequence (looked up): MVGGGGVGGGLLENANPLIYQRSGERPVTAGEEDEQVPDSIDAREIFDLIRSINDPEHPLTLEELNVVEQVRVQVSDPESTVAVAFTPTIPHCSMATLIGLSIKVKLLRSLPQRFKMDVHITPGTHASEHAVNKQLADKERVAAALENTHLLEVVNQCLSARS

Molecule: Myc-tagged AAP-5 protein (partial clone, plasmid pMT2SM-AAP-5) (from UniProt Q9NQ31 89-210)
- binding [1]: binds
- binding [2]: binds
- binding [3]: binds

B1: Myc-tagged AAP-5 protein (partial clone, plasmid pMT2SM-AAP-5) (protein)
chain: EQKLISEEDLPMAEFMDYTSSQCGKYYSSVPEEGGATHVYRYHRGESKLHMCLDIGNGQRKDRKKTSLGPGGSYQISEHAPEASQPAENISKDLYIEVYPGTYSVTVGSNDLTKKTHVVAVDSGQSVDLVFPV
- binding [4]: binds
